This passage reports binding results from paper PMC11650725.

By UniProt entry, the sequences of proteins in these tests, tags left out. Residues count along the entry.
UniProt P02769, residues 25-607: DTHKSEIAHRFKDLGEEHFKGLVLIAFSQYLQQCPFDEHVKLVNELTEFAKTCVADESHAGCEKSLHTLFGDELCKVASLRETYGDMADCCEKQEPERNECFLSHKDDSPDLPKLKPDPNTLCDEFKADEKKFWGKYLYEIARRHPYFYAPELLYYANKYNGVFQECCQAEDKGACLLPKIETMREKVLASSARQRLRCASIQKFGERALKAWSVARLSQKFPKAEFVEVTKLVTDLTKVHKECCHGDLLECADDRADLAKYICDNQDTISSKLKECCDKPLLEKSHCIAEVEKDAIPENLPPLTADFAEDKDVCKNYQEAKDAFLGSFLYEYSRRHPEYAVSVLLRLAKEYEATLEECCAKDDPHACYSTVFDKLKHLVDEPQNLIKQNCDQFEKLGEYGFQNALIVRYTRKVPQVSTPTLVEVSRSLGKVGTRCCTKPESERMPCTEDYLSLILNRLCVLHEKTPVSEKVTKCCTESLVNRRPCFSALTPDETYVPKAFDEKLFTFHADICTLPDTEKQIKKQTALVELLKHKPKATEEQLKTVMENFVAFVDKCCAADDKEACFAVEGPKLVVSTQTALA
UniProt P12004: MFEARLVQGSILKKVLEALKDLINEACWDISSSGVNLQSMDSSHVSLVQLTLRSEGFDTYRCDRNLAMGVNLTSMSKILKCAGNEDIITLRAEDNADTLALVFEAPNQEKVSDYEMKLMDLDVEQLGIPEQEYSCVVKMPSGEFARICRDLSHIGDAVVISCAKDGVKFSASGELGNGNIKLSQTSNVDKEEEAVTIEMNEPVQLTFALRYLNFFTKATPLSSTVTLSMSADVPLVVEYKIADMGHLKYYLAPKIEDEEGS

Where two headings read alike, the source gives them in different places. These are yes or no findings as the source states them, for the method shown. For some assays here: Binding seen in cells or lysates may run through a third protein. Some entries that bind do so weakly or less than the wild type.

Assay [1] deals with His-PNKP (purified His-tagged PNKP) (human) (UniProt Q96T60). Put plainly: pull-down; Ni-NTA agarose beads in NETN buffer (20 mM Tris pH 8, 1 mM EDTA, 0.5% IGEPAL CA-630, 500 mM NaCl); 1 ug His-PNKP with 1 ug purified PCNA or 1 ug BSA, 4 C, 1 h; washed 3 times; immunoblot; both purified. On the technique in general: Immunoblotting shows a protein as a band on a membrane.
Assay [2] addresses GFP-PNKP (GFP-tagged polynucleotide kinase-phosphatase, wild type) (human) (UniProt Q96T60). Put plainly: proximity ligation; U2OS cells transfected with GFP or GFP-PNKP 24 h before; fixed with cold MeOH; Duolink PLA with GFP and PCNA antibodies (1:200); no antibody as negative control.
For assay [3], the target named is PNKP (polynucleotide kinase-phosphatase), endogenous (human (endogenous in U2OS)) (UniProt Q96T60). The assay is described as follows: proximity ligation; U2OS cells, endogenous proteins; treated or not with FEN1i (10 uM, 1 h), EdU pulse to mark S-phase cells; Duolink PLA with PCNA, PNKP and LIG3 antibodies (1:200); cold MeOH fixation for PCNA/PNKP, 2% PFA otherwise; PNKP antibody alone as negative control.

Assay [4] has the same target. The description is as above. This is another data set of the same source.

Regarding “bovine serum albumin (from UniProt P02769 25-607)”, in assay [1], the binding result is “no binding (tested: 1 ug BSA)”.
Take “PCNA (proliferating cell nuclear antigen), endogenous (from UniProt P12004 1-261)”: the binding entry in assay [2] and in assay [3] was “binds” each time.
Regarding “purified PCNA (Abnova) (from UniProt P12004 1-261)”, the binding result in assay [1] was “binds”.

B1: LIG3 (DNA ligase III), endogenous (enzyme, UniProt P49916 43-1009)
chain: LLHGHPLFLRRKPVLSFQGSHLRSRATYLVFLPGLHVGLCSGPCEMAEQRFCVDYAKRGTAGCKKCKEKIVKGVCRIGKVVPNPFSESGGDMKEWYHIKCMFEKLERARATTKKIEDLTELEGWEELEDNEKEQITQHIADLSSKAAGTPKKKAVVQAKLTTTGQVTSPVKGASFVTSTNPRKFSGFSAKPNNSGEAPSSPTPKRSLSSSKCDPRHKDCLLREFRKLCAMVADNPSYNTKTQIIQDFLRKGSAGDGFHGDVYLTVKLLLPGVIKTVYNLNDKQIVKLFSRIFNCNPDDMARDLEQGDVSETIRVFFEQSKSFPPAAKSLLTIQEVDEFLLRLSKLTKEDEQQQALQDIASRCTANDLKCIIRLIKHDLKMNSGAKHVLDALDPNAYEAFKASRNLQDVVERVLHNAQEVEKEPGQRRALSVQASLMTPVQPMLAEACKSVEYAMKKCPNGMFSEIKYDGERVQVHKNGDHFSYFSRSLKPVLPHKVAHFKDYIPQAFPGGHSMILDSEVLLIDNKTGKPLPFGTLGVHKKAAFQDANVCLFVFDCIYFNDVSLMDRPLCERRKFLHDNMVEIPNRIMFSEMKRVTKALDLADMITRVIQEGLEGLVLKDVKGTYEPGKRHWLKVKKDYLNEGAMADTADLVVLGAFYGQGSKGGMMSIFLMGCYDPGSQKWCTVTKCAGGHDDATLARLQNELDMVKISKDPSKIPSWLKVNKIYYPDFIVPDPKKAAVWEITGAEFSKSEAHTADGISIRFPRCTRIRDDKDWKSATNLPQLKELYQLSKEKADFTVVAGDEGSSTTGGSSEENKGPSGSAVSRKAPSKPSASTKKAEGKLSNSNSKDGNMQTAKPSAMKVGEKLATKSSPVKVGEKRKAADETLCQTKVLLDIFTGVRLYLPPSTPDFSRLRRYFVAFDGDLVQEFDMTSATHVLGSRDKNPAAQQVSPEWIWACIRKRRLVAPC
Take B1: in assay [4], the binding result is recorded as “binds”.
